Laboratory results reported in PubChem BioAssay AID1224862 (National Center for Advancing Translational Sciences (NCATS), 2016).
Inconclusive means that the source gave no clear call. Such entries were picked first, then a sample of the others. Where the call is inconclusive, the potency comes from a doubtful curve fit. Active and inactive are the calls of the source. The call rests on the fitted dose curve; in most records, active means well fitted cell-killing curve with a large enough effect; inconclusive means small, poorly fitted or top-dose-only effect, or effect the other way; inactive means flat fitted curve, though single readings scatter.

Experiment: Compound cytotoxicity measured by an ATP content assay as a counter-screen for lead compounds in human astrocytoma cell line (SNB-19)
Conditions: SNB-19 astrocytoma viability, ATP luminescence; series mostly up to 46.1 µM
Procedure, shortened: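 Cell viability was measured as ATP content by luminescence in SNB-19 astrocytoma cells in RPMI 1640 with 10% FBS. Compounds were incubated for set times such as 6, 24 or 72 h, and cytotoxicity was expressed as percent inhibition.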
For `O=c1c(-c2ccc(O)cc2)coc2cc(O)ccc12`, the Potency was inconclusive: 17.3 µM [cytotoxic, single point]. For `O=C(Nc1ccc(OC(F)(F)F)cc1)c1sccc1NCc1ccnc2ccccc12`, the Potency was “inactive”. In the case of `COc1ccc(-c2coc3cc(O)ccc3c2=O)cc1`, the Potency is reported as inconclusive: 13.8 µM [cytotoxic, partial curve, poor fit]. With `CNC(=O)c1ccccc1Sc1ccc2c(/C=C/c3ccccn3)n[nH]c2c1` the Potency was active: 10.9 µM. With `CN(C)c1ccc(N=NS(=O)(=O)O)cc1` the Potency was inconclusive: 63.1 µM [cytotoxic, partial curve, poor fit]. In the case of `O=C(Nc1ccc([N+](=O)[O-])cc1Cl)c1cc(Cl)ccc1O`, the Potency is reported as inconclusive: 15.5 µM [cytotoxic, single point]. For `CNC1[C@H](O)C(O[C@@H]2C(O)C(O[C@H]3O[C@H]([C@@H](C)NC)CC[C@H]3N)[C@@H](N)C[C@H]2N)OC[C@]1(C)O` (some centres undefined), the Potency was “inactive”. In the case of `Clc1ccccc1-c1nc(-c2ccncc2)no1`, the Potency is reported as “inactive”. For `O=S(=O)(O)c1ccc2nc(-c3ccccc3)[nH]c2c1`, the Potency was “inactive”. For `CC(=O)Nc1ccc([C@H](C)C(=O)Nc2ncc(C(C)C)s2)cc1`, the Potency was inconclusive: 5.48 µM [rising, full curve, poor fit]. In the case of `CC(C)Oc1ccc2c(=O)c(-c3ccccc3)coc2c1`, the Potency is reported as inconclusive: 27.5 µM [cytotoxic, single point]. In the case of `CCC(C)SSc1ncc[nH]1` (centres undefined), the Potency is reported as “inactive”. With `CN(C)c1ccc(/C=C2\C(=O)Nc3ccccc32)cc1` the Potency was inconclusive: 12.3 µM [cytotoxic, partial curve, poor fit]. With `OCc1ccc(-c2ccc(-c3ccc(CO)s3)o2)s1` the Potency was inconclusive: 8.69 µM [cytotoxic, full curve]. In the case of `O=C(C=CC=Cc1ccc2c(c1)OCO2)N1CCCCC1`, the Potency is reported as “inactive”. For `CN(C)c1ccc(C(=C2C=CC(=[N+](C)C)C=C2)c2ccccc2)cc1`, the Potency was inconclusive: 15.5 µM [cytotoxic, partial curve]. With `CC(=C(CCOC(=O)C(C)C)SSC(CCOC(=O)C(C)C)=C(C)N(C=O)Cc1cnc(C)nc1N)N(C=O)Cc1cnc(C)nc1N` the Potency was “inactive”. In the case of `O=c1oc2cc(O)ccc2s1`, the Potency is reported as “inactive”. For `CCCCCNC(=O)N1CCC(CN(Cc2ccc(Cl)cc2)Cc2ccc([N+](=O)[O-])s2)C1` (centres undefined), the Potency was “inactive”.
